PubChem BioAssay AID1259424 – University of Nebraska Medical Center – 2018
Here is one part, drawn at random, of about 14,000 reagents tested. 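Higher correlation or smaller distance means closer resemblance to KSR1 loss; control wells, including KSR1 knockdowns, recur on many plates.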 Further read-outs or replicates are left out here. Reagent sequences are not shown. Not given: the time to read-out.

Assay: 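Rank knockdowns across the genome by resemblance to the KSR1 depletion profile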 (primary screen)
Cell system: human HCT116 colon cancer cells
Reagents: siRNA pool against human genes, 50 nM
Measured: 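Log2 levels of six mRNAs (branched-DNA multiplex), adjusted by two reference genes and the non-targeting median, then scored against the average KSR1 knockdown pattern as Pearson r and euclidean distance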
Direction: mean correlation with KSR1 profile: higher = expression change more like KSR1 knockdown

| target | mean correlation with KSR1 profile |
| --- | --- |
| PSMC3 | -0.000886 |
| OR6A2 | 0.675 |
| NOVA2 | 0.526 |
| EIF5A | 0.364 |
| CSF2RA | 0.203 |
| FBF1 | 0.148 |
| PIH1D1 | -0.323 |
| KIAA1755 | 0.556 |
| PLEKHA8P1 | -0.849 |
| FIGNL1 | -0.192 |
| HBA1 | 0.0764 |
| ST8SIA5 | 0.693 |

Part of the list above, set out differently:
{"target":"EIF5A","mean correlation with KSR1 profile":0.364}
{"target":"CSF2RA","mean correlation with KSR1 profile":0.203}
{"target":"FBF1","mean correlation with KSR1 profile":0.148}
{"target":"PIH1D1","mean correlation with KSR1 profile":-0.323}

The results go on.
| target | mean correlation with KSR1 profile |
| --- | --- |
| BIVM | -0.78 |
| TNNC2 | 0.725 |
| ELOF1 | 0.508 |
| DDB1 | -0.304 |
| ULBP1 | 0.349 |
| NKAIN1 | -0.195 |
| ACY1 | -0.624 |
| KDM5A | -0.622 |
| DCDC2 | -0.112 |
| C11orf16 | -0.443 |
| MCRS1 | -0.524 |
| TMX2 | -0.168 |
| NYAP2 | -0.724 |
| DDX1 | -0.191 |
| TELO2 | -0.152 |
| OLFML2B | -0.0955 |
| GTF2E1 | -0.574 |
| CDCA7 | 0.313 |
| SLC15A3 | -0.137 |
| STAMBPL1 | -0.56 |
| ACAA1 | -0.377 |
| NNT | -0.319 |
